## Primary screen of a compound library

Sequences of proteins named here, by UniProt entry; tags and fusion partners are left off.
UniProt P9WPC5, whole entry: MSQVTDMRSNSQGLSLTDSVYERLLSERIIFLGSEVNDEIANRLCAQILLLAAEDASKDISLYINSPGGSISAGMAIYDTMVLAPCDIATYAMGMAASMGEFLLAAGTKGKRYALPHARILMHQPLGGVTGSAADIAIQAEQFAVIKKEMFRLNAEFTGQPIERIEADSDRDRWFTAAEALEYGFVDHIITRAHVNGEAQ
UniProt P9WPC3, whole entry partner: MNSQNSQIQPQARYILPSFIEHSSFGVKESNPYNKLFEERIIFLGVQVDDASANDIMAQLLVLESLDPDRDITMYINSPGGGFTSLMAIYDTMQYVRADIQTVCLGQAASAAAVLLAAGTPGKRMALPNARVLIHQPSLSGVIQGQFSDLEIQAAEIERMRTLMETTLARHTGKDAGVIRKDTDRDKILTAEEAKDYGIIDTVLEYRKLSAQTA

Measurements from “University of Dundee, Small-Polar-MMV Screening Library” (2021), ChEMBL document CHEMBL3988442.

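ClpP1P2, Mycobacterium tuberculosis (UniProt P9WPC5 and UniProt P9WPC3). Protease assay of ClpP1P2, read by the AMC dye that it sets free. Tested at 50 µM. Direction is inferred from only a few compounds that gave an IC50; most scored high, so higher reads as stronger inhibition. Most other retested compounds had strongly negative values. Size under these conditions: about 69,000 compounds, about 10 of them at 50% or above in at least one test.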

Results are given as percent effect. The controls that fix the scale are not given in the record; negative values are as filed. Compounds were drawn at random from those tested, without regard to their results.

SMILES	percent effect
O=C(NCc1ccccn1)c1cncc(C2CCCN2)n1 (stereo not given)	-12.24
COCC1CN(Cc2cccnc2OC)Cc2cnn(C)c21 (stereo not given)	-1.834
COc1ccccc1N1CCCC(NC(=O)Nc2cccnc2)C1 (stereo not given)	-6.938
CN(Cc1ccccc1)CC1CC2(CO1)CN(Cc1cnn(C)c1)C2 (stereo not given)	-1.369
O=C([C@@H]1CCO[C@@H]2CCN(Cc3ccsc3)C[C@@H]21)N1CCCC1	-0.03274
CC(CCNC(=O)N(C)CC1CCOCC1)N1CCCCC1 (stereo not given)	-2.871
COc1nccc(N2CC[C@@H](N3CCCCCC3)[C@H](O)C2)c1C#N	-0.1454
CC(C)(NCCOc1ccc(CC#N)cc1)c1nccs1	-7.111
O=C(O)c1nnn(-c2cc(F)cc(F)c2)c1-c1ccncc1	4.865
CCN(CC)C1CCN(C(=O)NCc2cccc(-n3cccn3)c2)C1 (stereo not given)	-9.602
Cc1cnccc1-c1cc(NCCO)nc2[nH]ccc12	3.483
Cc1nn(C)c(C)c1CC(C)NC(=O)NCc1ccoc1C (stereo not given)	-0.7716
Cc1nccn1C1CCCN(C(=O)COC2CCCC2)C1 (stereo not given)	-19.52
O=C1CCCCCN1Cc1cccc(OC(F)F)c1	-1.366
Cc1nc(C)n(Cc2cccc(NC3CCN(C)C3=O)c2)n1 (stereo not given)	-2.289
Cc1nn(C)c(C)c1C(=O)N1CCN(C(=O)CCC2CCCCC2)CC1	-5.947
Cc1ccc(C)c2c(O)cc(CN3CCNC(=O)C3C)nc12 (stereo not given)	-11.17
CCc1cc(C(=O)NCC2CCN(Cc3cccc(C#N)c3)C2)on1 (stereo not given)	-2.331
CC(Nc1nc2c(cnn2C)c(=O)[nH]1)c1ccc(F)cc1 (stereo not given)	-6.139
O=C(C1CCCN1S(=O)(=O)C1CCCC1)N1CCSCC1 (stereo not given)	-0.8699
COc1ccccc1C1(O)CCCN(C(=O)c2csc(C(C)=O)c2)C1 (stereo not given)	-7.324
CCO[C@H]1CO[C@@]2(CCCN(Cc3scnc3C)C2)C1	23.02
O=C(CCn1nc(C(F)(F)F)c(Cl)c1C1CC1)NN1CCOCC1	-17.88
CNC(=O)c1cc(C)n(-c2ccccc2)n1	-5.941
CNC(=O)[C@H]1C[C@@H]2CN(S(=O)(=O)c3ccccc3)C[C@@H]2N1C(C)=O	2.929
Cc1cc(C)n(-c2cccc(NC(=O)N3CCC[C@@H]3CO)c2)n1	-13.44
Cc1cccnc1CSCCCNS(C)(=O)=O	-5.865
O=C([C@H]1CC[C@@H]2[C@@H](CCN2Cc2nccs2)O1)N1CCOCC1	16.07
O=C(c1c[nH]cn1)N1CCC(F)(F)C2(CCN(c3cnccn3)C2)C1 (stereo not given)	-10.16
CC(C)(C)NC(=O)CN1CCNCC1	8.549
Cc1cccc(CCC(=O)NCC2CCCN2c2cccnn2)c1 (stereo not given)	-8.593
CN1CCN(c2ccc(NCc3ccsc3)cn2)CC1	-15.07
CSC(C)C(=O)Nc1ccnn1-c1ccccc1C (stereo not given)	3.466
Cc1sc2ncnc(N3CCC(N(C)Cc4cnn(C)c4)CC3)c2c1C	-17.14
c1ccc(NCc2cn3c(n2)CN(Cc2cccs2)CC3)nc1	-6.984
N#CC1C(=O)Nc2c(cnn2C2CCCC2)C12CCCCC2 (stereo not given)	8.354
O=C(NCCc1cc(F)ccc1F)NC(CO)c1ccccc1 (stereo not given)	-6.553
CN1CCC(NC(=O)Nc2ccc(Cl)c(F)c2)C1=O (stereo not given)	3.475
CC(C)C(=O)NC1CC2(CCN(CC(=O)N(C)C)CC2)c2ccccc21 (stereo not given)	-13.07
Cn1ncc2c(N3CCCC4(CCNC4)C3)nc(C(C)(C)C)nc21 (stereo not given)	4.657
CCCn1cc(NC(=O)c2cccc(CN3CC[C@H](O)C3)c2)nn1	3.009
OC(CNc1ccncn1)CN1CCCCCC1 (stereo not given)	-14.77
CCN1CCOC(CNCc2ccccc2OCC(=O)N(C)C)C1 (stereo not given)	-0.05587
CCNC(=O)N1CCC2(C1)c1ccccc1S(=O)(=O)N2CCC(C)C (stereo not given)	-9.704
COc1ccc(-c2c(C)nn3c(=N)c(C#N)n[nH]c23)cc1	1.757
NC(=O)C1CCCN1C1CCN(C(=O)c2cccc3c2OCO3)CC1 (stereo not given)	-11.7
Cc1cnn(CC2CCCN2Cc2noc(-c3ccccc3)n2)c1 (stereo not given)	0.4763
CC(O)CNc1nc(-c2cccnc2)nc2c1CCC2 (stereo not given)	3.117
CNC(=O)[C@@H]1C[C@@H](N)CN1C1CCN(c2ccccc2F)CC1	-2.888
Cc1cnc(N2Cc3cnn(Cc4ccc(F)cc4)c3C2)nc1N(C)C	2.176
c1cc(-c2c[nH]c([C@@H]3COCCN3C3CCCCC3)n2)ccn1	-13.16
COCCN1CCN(CC(=O)N(C)Cc2ccc(F)cc2)CC1C (stereo not given)	9.142
C[S+]([O-])c1ccc(NC(=O)Cc2cccnc2)cc1F (stereo not given)	-6.01
Cc1ccoc1C(=O)N1CC[C@@H]2O[C@@H](C)C[C@H]2C1	4.559
CN(C)c1ncc(-c2ccc(C(N)=O)cc2)c(C2CCNC2)n1 (stereo not given)	-16.92

Some entries from above, unchanged:

SMILES,percent effect
COc1ccccc1N1CCCC(NC(=O)Nc2cccnc2)C1 (stereo not given),-6.938
Cc1ccoc1C(=O)N1CC[C@@H]2O[C@@H](C)C[C@H]2C1,4.559
Cc1nn(C)c(C)c1C(=O)N1CCN(C(=O)CCC2CCCCC2)CC1,-5.947
Cc1cnn(CC2CCCN2Cc2noc(-c3ccccc3)n2)c1 (stereo not given),0.4763
CN1CCN(c2ccc(NCc3ccsc3)cn2)CC1,-15.07
NC(=O)C1CCCN1C1CCN(C(=O)c2cccc3c2OCO3)CC1 (stereo not given),-11.7
CC(C)(NCCOc1ccc(CC#N)cc1)c1nccs1,-7.111